These are yes or no findings as the source states them, for the method shown. Binding seen in cells or lysates may run through a third protein. Some entries that bind do so weakly or less than the wild type.
Biological target: PSmOrange-C1-EPHA2 (UniProt P29317)
Assay: FRET or BRET

By UniProt entry, the sequences of proteins in these tests, tags left out. Residues count along the entry.
UniProt P29317, residues 24-976: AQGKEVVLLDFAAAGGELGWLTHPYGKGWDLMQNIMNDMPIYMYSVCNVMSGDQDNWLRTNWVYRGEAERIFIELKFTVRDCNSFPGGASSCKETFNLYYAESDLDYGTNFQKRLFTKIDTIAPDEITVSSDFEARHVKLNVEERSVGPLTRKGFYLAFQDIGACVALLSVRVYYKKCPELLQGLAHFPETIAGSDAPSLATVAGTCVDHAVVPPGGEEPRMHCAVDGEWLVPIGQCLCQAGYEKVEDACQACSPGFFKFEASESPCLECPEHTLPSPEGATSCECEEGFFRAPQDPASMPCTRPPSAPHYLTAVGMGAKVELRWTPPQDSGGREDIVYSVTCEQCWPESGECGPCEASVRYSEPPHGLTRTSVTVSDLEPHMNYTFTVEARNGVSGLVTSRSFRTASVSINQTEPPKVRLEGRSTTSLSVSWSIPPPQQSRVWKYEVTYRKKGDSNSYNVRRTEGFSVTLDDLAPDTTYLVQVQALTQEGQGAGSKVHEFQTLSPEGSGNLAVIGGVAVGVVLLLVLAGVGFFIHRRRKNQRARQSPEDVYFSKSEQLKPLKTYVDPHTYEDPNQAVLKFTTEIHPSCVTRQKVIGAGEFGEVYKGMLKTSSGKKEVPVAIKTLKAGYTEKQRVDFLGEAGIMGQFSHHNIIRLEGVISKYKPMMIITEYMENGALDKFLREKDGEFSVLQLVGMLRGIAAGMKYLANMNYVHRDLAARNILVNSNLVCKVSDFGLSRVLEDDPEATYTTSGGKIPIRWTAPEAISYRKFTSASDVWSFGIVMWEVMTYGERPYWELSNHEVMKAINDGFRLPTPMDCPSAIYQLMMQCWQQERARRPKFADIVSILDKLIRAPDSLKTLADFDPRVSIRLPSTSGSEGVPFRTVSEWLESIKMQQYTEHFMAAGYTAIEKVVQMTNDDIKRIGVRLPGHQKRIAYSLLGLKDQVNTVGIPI

binding: binds
B1: mT-Sapphire-C1-Ephrin-B1 (ligand, UniProt P52795 25-345)
chain: ATPLAKNLEPVSWSSLNPKFLSGKGLVIYPKIGDKLDIICPRAEAGRPYEYYKLYLVRPEQAAACSTVLDPNVLVTCNKPHQEIRFTIKFQEFSPNYMGLEFKKYHDYYITSTSNGSLEGLENREGGVCRTRTMKIVMKVGQDPNAVTPEQLTTSRPSKESDNTVKTATQAPGRGSQGDSDGKHETVNQEEKSGPGAGGGGSGDSDSFFNSKVALFAAVGAGCVIFLLIIIFLTVLLLKLRKRHRKHTQQRAAALSLSTLASPKGGSGTAGTEPSDIIIPLRTTENNYCPHYEKVSGDYGHPVYIVQEMPPQSPANIYYKV

— article doi:10.1101/2025.01.03.631197
